This series in a line: general procedure: Fmoc solid-phase peptide synthesis; Rink Amide-MBHA resin (Novabiochem), substitution 0.64 mmol/g; HBTU/HOBT, DIEA in NMP. As to conditions: whole synthesis; for final HPLC purity: analytical HPLC, scale of the general procedure 0.1 mmol; for isolated mass / isolated yield: scale 0.1 mmol.

Some peptides are written in HELM: one residue between dots, names in brackets for other building blocks, links after the first $. Square brackets hold non-standard residues; d marks the D form. * marks the point of attachment. Octanoyl = CCCCCCCC(=O)*; Aib = CC(C)(N)C(=O)O; Inp = O=C(O)C1CCNCC1

For “(Inp^1, Aib^2, Ser(n-octanoyl)^17)hGhrelin(1-28)-NH2”, the “final HPLC purity” value is 98.0%. Consider “[Inp^1, Aib^2, 10, Ser^3]hGhrelin(1-28)-NH2”, for which the “final HPLC purity” value is 99.9%. For the substance [Inp^1, Ser^3]hGhrelin(1-28)-NH2, the “final HPLC purity” value is recorded as 99.5%.

For the substance “(Inp^1, Aib^2, 10, Glu(NH-hexyl)^3)hGhrelin(1-28)-NH2”, the “final HPLC purity” value is recorded as 97.8%. As for “(Ac-Inp^1, Aib^2, 10, Glu(NH-hexyl)^3)hGhrelin(1-28)-NH2”, the “final HPLC purity” value stood at 97.0%. On the same count and under the same terms, to “H-[Inp][Aib]S(Octanoyl)FLSP[Aib]HQRVQQRKS(Octanoyl)SKKPPAKLQPR-NH2 (N-terminus assumed; SMILES CCCCCCCC(=O)OC[C@H](NC(=O)[C@H](CCCCN)NC(=O)[C@H](CCCNC(=N)N)NC(=O)[C@H](CCC(N)=O)NC(=O)[C@H](CCC(N)=O)NC(=O)[C@@H](NC(=O)[C@H](CCCNC(=N)N)NC(=O)[C@H](CCC(N)=O)NC(=O)[C@H](Cc1c[nH]cn1)NC(=O)C(C)(C)NC(=O)[C@@H]1CCCN1C(=O)[C@H](CO)NC(=O)[C@H](CC(C)C)NC(=O)[C@H](Cc1ccccc1)NC(=O)[C@H](COC(=O)CCCCCCC)NC(=O)C(C)(C)NC(=O)C1CCNCC1)C(C)C)C(=O)N[C@@H](CO)C(=O)N[C@@H](CCCCN)C(=O)N[C@@H](CCCCN)C(=O)N1CCC[C@H]1C(=O)N1CCC[C@H]1C(=O)N[C@@H](C)C(=O)N[C@@H](CCCCN)C(=O)N[C@@H](CC(C)C)C(=O)N[C@@H](CCC(N)=O)C(=O)N1CCC[C@H]1C(=O)N[C@@H](CCCNC(=N)N)C(N)=O)” belongs 99.0%; to (Inp^1, Aib^2, 10)hGhrelin(1-28)-NH2, 99.0%; to (Inp^1)hGhrelin(1-28)-NH2, 96.2%. Still for that read-out and setting: next, (Inp^1, Aib^2)hGhrelin(1-28)-NH2: 99.0%.

With “PEPTIDE1{[1-Apc].[Aib].[Glu(NH-hexyl)].F.L.S.P.E.H.[Aib].R.V.Q.Q.R.K.E.S.K.K.P.P.A.K.L.Q.P.R.[am]}$$$$V2.0”, the “final HPLC purity” value was “approximately 99.8%”, the isolated mass worked out at 4.6 mg and the isolated yield worked out at 1.4%. In the case of “(Inp^1, Aib^2, Glu(NH-hexyl)^3)hGhrelin(1-28)-NH2”, the “final HPLC purity” value is on record as 99.0%. Still for that read-out and setting: next, “[Inp^1, Aib^2, Ser^3, Ser(n-octanoyl)^17]hGhrelin(1-28)-NH2”: 99.0%. On the same count and under the same terms, next, (Inp^1, Aib^2, 8)hGhrelin(1-28)-NH2: 98.0%.

Consider “PEPTIDE1{[ac].[1-Apc].[Aib].[Glu(NH-hexyl)].F.L.S.P.E.H.[Aib].R.V.Q.Q.R.K.E.S.K.K.P.P.A.K.L.Q.P.R.[am]}$$$$V2.0”, for which the “final HPLC purity” value is “approximately 97.5%”, the isolated mass is recorded as 1.5 mg and the isolated yield came to 0.5%.

Turning to “(Inp^1, Ser(n-octanoyl)^17)hGhrelin(1-28)-NH2”, the “final HPLC purity” value is listed as “approximately 96.6%”.

For [Inp^1, Aib^2, Ser^3]hGhrelin(1-28)-NH2, the “final HPLC purity” value was found to be 99.9%.

Values taken from patent publication US8299022B2 (IPSEN Pharma S.A.S., priority 2006, dated 2012).
